Laboratory results reported in PubChem BioAssay AID2662 (National Center for Advancing Translational Sciences (NCATS), 2010).
The whole screen tested about 290,000 compounds, of which about 110 (0.038%) were called active. Inconclusive results, whose numbers are uncertain, are shown with a selection of clear calls. Calls follow the shape of the dose curve; as a rule, active = well fitted inhibition curve with a large enough effect in the polarisation, with a control signal flat (not every such curve was filed as active); inconclusive = small, poorly fitted or top-dose-only effect, or effect the other way, or a change in a side signal; inactive = no such curve, though single readings can be large or run the other way; the % refers to the polarisation. Potencies of inconclusive entries are doubtful fits and often do not repeat. “Side channel” marks fits to a control or component signal instead of the main read-out.

Amino acid sequences for entries named in this document (tags omitted).
UniProt Q03164, whole entry, looked up: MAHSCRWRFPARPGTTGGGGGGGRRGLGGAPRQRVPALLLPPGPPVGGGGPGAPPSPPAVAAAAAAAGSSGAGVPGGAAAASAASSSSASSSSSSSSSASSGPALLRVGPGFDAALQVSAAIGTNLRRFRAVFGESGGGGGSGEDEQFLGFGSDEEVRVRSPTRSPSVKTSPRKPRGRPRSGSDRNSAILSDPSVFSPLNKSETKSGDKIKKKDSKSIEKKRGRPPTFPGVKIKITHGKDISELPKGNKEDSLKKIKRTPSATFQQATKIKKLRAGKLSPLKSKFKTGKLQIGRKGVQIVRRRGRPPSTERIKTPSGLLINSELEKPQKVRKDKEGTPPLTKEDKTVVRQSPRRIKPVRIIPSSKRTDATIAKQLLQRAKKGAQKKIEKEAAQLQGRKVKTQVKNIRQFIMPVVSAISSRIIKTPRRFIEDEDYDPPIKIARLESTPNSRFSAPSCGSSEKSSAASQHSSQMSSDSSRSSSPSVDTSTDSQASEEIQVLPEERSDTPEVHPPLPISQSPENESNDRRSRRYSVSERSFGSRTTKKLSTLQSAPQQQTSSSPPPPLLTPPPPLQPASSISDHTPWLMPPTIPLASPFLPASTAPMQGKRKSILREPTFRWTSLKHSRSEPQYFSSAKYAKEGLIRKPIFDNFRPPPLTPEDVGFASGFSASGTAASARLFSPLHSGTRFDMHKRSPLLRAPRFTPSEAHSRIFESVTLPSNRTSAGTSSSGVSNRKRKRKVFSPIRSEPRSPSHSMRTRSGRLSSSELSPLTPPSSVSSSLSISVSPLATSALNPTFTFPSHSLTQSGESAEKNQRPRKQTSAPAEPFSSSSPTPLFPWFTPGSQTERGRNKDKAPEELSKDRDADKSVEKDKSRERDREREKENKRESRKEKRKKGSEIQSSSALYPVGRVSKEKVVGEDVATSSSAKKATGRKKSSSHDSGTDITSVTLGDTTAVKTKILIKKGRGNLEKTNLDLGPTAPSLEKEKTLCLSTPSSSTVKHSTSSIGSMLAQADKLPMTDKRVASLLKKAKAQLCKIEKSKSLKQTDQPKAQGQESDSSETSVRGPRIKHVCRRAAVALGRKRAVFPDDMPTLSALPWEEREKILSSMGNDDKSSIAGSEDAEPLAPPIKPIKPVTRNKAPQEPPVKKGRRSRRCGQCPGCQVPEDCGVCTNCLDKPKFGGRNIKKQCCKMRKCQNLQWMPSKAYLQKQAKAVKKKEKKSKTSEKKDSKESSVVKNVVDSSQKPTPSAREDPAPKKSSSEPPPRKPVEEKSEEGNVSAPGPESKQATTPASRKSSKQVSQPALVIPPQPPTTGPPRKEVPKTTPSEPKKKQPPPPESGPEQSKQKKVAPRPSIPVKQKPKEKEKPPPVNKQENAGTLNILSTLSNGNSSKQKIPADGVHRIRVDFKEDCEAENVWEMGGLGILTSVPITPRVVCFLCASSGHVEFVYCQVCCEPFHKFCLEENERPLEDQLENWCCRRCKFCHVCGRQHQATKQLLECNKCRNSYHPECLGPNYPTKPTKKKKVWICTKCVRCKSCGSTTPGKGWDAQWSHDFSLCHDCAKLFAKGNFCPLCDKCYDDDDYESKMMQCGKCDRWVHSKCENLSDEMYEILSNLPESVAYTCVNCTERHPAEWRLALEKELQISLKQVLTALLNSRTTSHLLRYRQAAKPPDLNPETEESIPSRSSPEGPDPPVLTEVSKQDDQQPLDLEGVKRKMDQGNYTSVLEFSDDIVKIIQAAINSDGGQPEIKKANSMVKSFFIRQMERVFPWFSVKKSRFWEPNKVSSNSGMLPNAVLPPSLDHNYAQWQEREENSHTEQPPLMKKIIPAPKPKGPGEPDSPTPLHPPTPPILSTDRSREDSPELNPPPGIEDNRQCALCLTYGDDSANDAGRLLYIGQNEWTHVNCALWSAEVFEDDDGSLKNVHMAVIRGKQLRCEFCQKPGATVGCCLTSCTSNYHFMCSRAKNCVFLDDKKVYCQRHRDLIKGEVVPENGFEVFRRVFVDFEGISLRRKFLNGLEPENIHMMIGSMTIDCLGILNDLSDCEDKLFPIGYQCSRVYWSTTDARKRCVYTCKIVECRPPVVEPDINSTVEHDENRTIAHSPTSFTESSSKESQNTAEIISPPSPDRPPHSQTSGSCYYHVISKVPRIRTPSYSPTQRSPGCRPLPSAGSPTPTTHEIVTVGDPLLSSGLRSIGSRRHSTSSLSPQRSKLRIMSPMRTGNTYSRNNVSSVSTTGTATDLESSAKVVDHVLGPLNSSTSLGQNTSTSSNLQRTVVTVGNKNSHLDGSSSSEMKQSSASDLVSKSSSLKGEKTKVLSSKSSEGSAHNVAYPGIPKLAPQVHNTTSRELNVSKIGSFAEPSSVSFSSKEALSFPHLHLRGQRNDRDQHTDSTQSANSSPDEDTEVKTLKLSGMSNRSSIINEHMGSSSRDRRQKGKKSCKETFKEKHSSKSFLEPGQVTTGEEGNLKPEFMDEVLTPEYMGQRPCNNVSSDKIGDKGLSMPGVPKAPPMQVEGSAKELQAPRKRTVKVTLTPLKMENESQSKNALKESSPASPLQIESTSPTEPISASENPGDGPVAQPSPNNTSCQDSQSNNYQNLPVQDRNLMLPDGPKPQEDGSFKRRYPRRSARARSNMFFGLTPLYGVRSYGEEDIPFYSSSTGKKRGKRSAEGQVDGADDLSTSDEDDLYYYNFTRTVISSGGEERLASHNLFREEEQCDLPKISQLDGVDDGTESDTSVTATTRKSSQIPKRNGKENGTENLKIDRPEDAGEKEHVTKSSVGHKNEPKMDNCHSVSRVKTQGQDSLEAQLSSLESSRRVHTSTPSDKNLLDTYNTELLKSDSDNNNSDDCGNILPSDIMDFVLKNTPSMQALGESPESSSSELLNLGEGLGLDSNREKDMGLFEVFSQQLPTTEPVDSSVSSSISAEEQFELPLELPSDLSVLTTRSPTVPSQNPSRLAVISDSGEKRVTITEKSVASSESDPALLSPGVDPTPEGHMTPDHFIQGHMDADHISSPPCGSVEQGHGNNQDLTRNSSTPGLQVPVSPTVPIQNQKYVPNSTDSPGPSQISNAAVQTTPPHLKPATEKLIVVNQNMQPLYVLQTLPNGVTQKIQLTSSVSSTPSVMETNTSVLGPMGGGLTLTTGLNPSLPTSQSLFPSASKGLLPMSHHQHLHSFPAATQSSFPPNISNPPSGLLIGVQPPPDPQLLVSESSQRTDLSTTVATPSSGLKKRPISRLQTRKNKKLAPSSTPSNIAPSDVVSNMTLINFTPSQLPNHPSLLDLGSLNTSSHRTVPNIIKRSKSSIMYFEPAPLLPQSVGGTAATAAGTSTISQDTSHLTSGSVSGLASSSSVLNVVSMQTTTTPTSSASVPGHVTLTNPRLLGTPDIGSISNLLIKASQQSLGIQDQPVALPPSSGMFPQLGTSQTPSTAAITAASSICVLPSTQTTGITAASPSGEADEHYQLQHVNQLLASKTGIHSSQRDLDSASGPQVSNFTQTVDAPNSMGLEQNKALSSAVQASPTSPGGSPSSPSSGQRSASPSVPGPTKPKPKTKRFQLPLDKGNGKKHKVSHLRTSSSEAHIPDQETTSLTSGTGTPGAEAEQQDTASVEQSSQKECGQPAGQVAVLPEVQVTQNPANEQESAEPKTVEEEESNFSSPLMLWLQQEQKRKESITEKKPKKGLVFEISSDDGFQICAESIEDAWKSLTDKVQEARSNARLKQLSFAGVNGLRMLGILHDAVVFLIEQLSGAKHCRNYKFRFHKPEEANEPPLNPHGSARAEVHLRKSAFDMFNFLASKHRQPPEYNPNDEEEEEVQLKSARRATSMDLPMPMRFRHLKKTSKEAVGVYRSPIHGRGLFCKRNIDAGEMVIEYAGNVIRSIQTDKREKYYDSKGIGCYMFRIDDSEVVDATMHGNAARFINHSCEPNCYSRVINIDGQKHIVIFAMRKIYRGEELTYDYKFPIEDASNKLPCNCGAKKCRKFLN

Each compound was assayed against Histone-lysine N-methyltransferase 2A (Homo sapiens) (UniProt Q03164) (assay: qHTS Fluorescence Polarization Assay for Inhibitors of MLL CXXC domain - DNA interaction). Details: MLL-CXXC / FITC-HOXA9 DNA fluorescence polarization; activity change, negative = inhibition: at 115 µM (top of the series).
Procedure, shortened: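 Fluorescence polarization: 7 uM MLL-CXXC (stock) preincubated 5 min with compounds, then 50 nM fluorescein-HOX-A9 DNA (stock) added; 30 min ambient. Buffer 50 mM Tris-HCl pH 7.5, 50 mM NaCl, 1 mM DTT, 0.05% BSA.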
Potency is read from the fitted curve at half-maximal effect.

| SMILES | Potency | activity change, negative = inhibition |
| --- | --- | --- |
| O=C(NCc1ccccc1)C1CCC(=O)N(CCCN2CCCC2=O)C1 (stereo unspecified) | inconclusive: 1.12 µM [quencher, side channel, full curve, poor fit] | – |
| O=C(Nc1ccc2c(c1)nc1n2CCN(C2CCCCC2)C1)NC1CCCCC1 | inconclusive: 70.8 µM [quencher, side channel, single point] | – |
| O=C(Nc1c(-c2ccccc2)nc2ccccn12)c1cccs1 | inconclusive: 3.55 µM [fluorescent, side channel, partial curve] | – |
| CC(=O)Oc1ccc(C)cc1 | – | inactive: -5.38% |
| CC(=O)N[C@H]1[C@H](OC2CCCCC2)O[C@H](COC(C)=O)[C@@H](OC(C)=O)[C@@H]1OC(C)=O | inconclusive: 39.8 µM [fluorescent, single point] | – |
| Cc1cc(S(=O)(=O)/N=C(\N)c2ccc(C(N)=O)cc2)cc(C)c1F | – | inconclusive: 11.4% [phenotype inactive] |
| CC(=O)c1c(N2CCN(c3ccc(F)cc3)CC2)nc(=S)n(Cc2ccccc2)c1C | – | inactive: 2.56% |
| CCOc1ccc(CC(=O)NCCc2cnc[nH]2)cc1 | inconclusive: 31.6 µM [inhibitor, single point] | – |
| CSc1nsc(/C=C/Nc2ccc(C)c(C)c2)c1C#N | inconclusive: 35.5 µM [fluorescent, side channel, single point] | – |
| CCCSC1=C(C#N)C2(CCCCC2)C(C#N)=C(N)N1 | inconclusive: 1.58 µM [inhibitor, partial curve, poor fit] | – |
| CSc1nc(NCC(C)O)c2c3c(sc2n1)CN(C)CC3 (stereo unspecified) | inconclusive: 10 µM [fluorescent, side channel, partial curve] | – |
| COc1ccccc1NC(=O)C(=O)N1CCCC1 | inconclusive: 1.12 µM [fluorescent, side channel, full curve, poor fit] | – |
| O=C(C[n+]1cc(Br)cc(Br)c1)c1ccccc1 | inconclusive: 11.2 µM [inhibitor, single point] | – |
| O=C(COC(=O)c1cccc(F)c1)Nc1cccnc1Cl | – | inactive: -1.88% |
| N#C/C(=C\c1cccc(Cl)c1)C(=O)c1ccccc1 | inconclusive: 35.5 µM [inhibitor, partial curve] | – |
| COc1ccccc1C1c2[nH]c3ccccc3c2C[C@H]2C(=O)N(C3CCN(Cc4ccccc4)CC3)CC(=O)N12 (stereo partly specified) | – | inactive: 10.6% |
| COC(=O)C1=C(C)N(Cc2ccccc2)C(=NCCc2c[nH]c3ccccc23)N[C@H]1c1ccccc1 | inconclusive: 39.8 µM [quencher, partial curve] | – |
| Cc1ccc(N(Cc2cc(=O)[nH]c3ccccc23)C(=O)CCl)c(C)c1 | inconclusive: 14.1 µM [fluorescent, side channel, single point] | – |
| Cc1nn(C)c(C(=O)N/N=C/c2cccc3ccccc23)c1Cl | – | inactive: 11.8% |
| CCOc1cc(CNCCc2ccc(S(N)(=O)=O)cc2)ccc1OCc1ccc(Cl)cc1 | inconclusive: 3.98 µM [quencher, side channel, full curve] | – |
| CCc1nnc(NC(=O)c2cccc(C(=O)Nc3nnc(CC)s3)n2)s1 | – | inactive: 21.2% |

| SMILES | Potency | activity change, negative = inhibition |
| --- | --- | --- |
| Cc1ccn2cc(-c3ccc(O)c(O)c3)nc2c1 | inconclusive: 11.2 µM [quencher, side channel, single point] | – |
| O=S(=O)(Nc1nnc(C2CCCCC2)s1)c1ccc(F)cc1 | inconclusive: 70.8 µM [fluorescent, side channel, single point] | – |
| O=C(CSc1ccccc1)NC1CCCCCC1 | inconclusive: 89.1 µM [quencher, side channel, single point] | – |
| COc1ccc(CNCCC2(Cc3ccccc3)CC(C)N(C)CC2C)cc1OC (stereo unspecified) | inconclusive: 1 µM [inhibitor, full curve, poor fit] | – |
| COc1ccc(S(=O)(=O)N2CCC(C(=O)N[C@H](C(=O)NCc3ccncc3)C(C)C)CC2)cc1 | – | inactive: -1.96% |
| O=C(C1=C[C@H](c2ccccc2)C[C@H](OCc2ccc(CO)cc2)O1)N1CCN(Cc2ccccc2)CC1 | – | inactive: -20.4% |
| CCOc1ccc(S(=O)(=O)Nc2nc3ccccc3nc2-n2ccc(=NC(=O)c3ccccc3C)cc2)cc1 | inconclusive: 35.5 µM [fluorescent, side channel, single point] | – |
| O=[N+]([O-])c1ccccc1/C=N/N1CCN(Cc2ccccc2)CC1 | – | inactive: 3.58% |
| CCOC(=O)c1ccc(NC(=O)c2nc[nH]c2C(=O)N[C@H](C)c2ccccc2)cc1 | inconclusive: 28.2 µM [inhibitor, partial curve] | – |
| CCN1C(=S)N[C@@H](CCc2ccccc2)[C@H](C(=O)OC)[C@H]1C | inactive | – |
| CCS(=O)(=O)C1=NN2C(=N)/C(=C\c3ccc(SCc4ccco4)o3)C(=O)N=C2S1 | inconclusive: 15.8 µM [fluorescent, side channel, partial curve] | – |
| CC1=NN(c2ccccc2)C(=O)/C1=C/c1ccc(Cl)cc1 | inconclusive: 17.8 µM [inhibitor, partial curve] | – |
| O=C(NC1CCCCNC1=O)c1ccc(Cl)cc1 (stereo unspecified) | – | inactive: -6.77% |
| CC1CN(C(=O)c2ccc(COc3ccccc3Cl)o2)CC(C)O1 (stereo unspecified) | inconclusive: 44.7 µM [fluorescent, side channel, partial curve] | – |
| CC(=O)c1ccc(NC(=O)Oc2ccccc2)cc1 | – | inactive: 27.4% |
| CCN1CCN(C(=O)CSc2cc(=O)n(C)c3ccccc23)CC1 | inconclusive: 7.08 µM [fluorescent, side channel, full curve] | – |
| O=C(O)CNC(=O)c1ccccc1Br | inconclusive: 17.8 µM [fluorescent, side channel, full curve, poor fit] | – |
| COc1cccc2c1O/C(=N\O)C(C(=O)Nc1cccc(C)c1C)C2 (stereo unspecified) | inconclusive: 89.1 µM [inhibitor, single point] | – |
| COC(=O)c1cc2ccccc2n1Cc1ccc(Cl)nc1 | inconclusive: 12.6 µM [fluorescent, side channel, single point] | – |
| O=c1oc2c(CN3CCCCC3)c(O)ccc2cc1-c1nc2ccccc2[nH]1 | inconclusive: 8.91 µM [fluorescent, side channel, full curve] | – |

Part of the list above, as tab-separated lines.
SMILES	Potency	activity change, negative = inhibition
COc1ccc(S(=O)(=O)N2CCC(C(=O)N[C@H](C(=O)NCc3ccncc3)C(C)C)CC2)cc1	–	inactive: -1.96%
O=C(C1=C[C@H](c2ccccc2)C[C@H](OCc2ccc(CO)cc2)O1)N1CCN(Cc2ccccc2)CC1	–	inactive: -20.4%
CCOc1ccc(S(=O)(=O)Nc2nc3ccccc3nc2-n2ccc(=NC(=O)c3ccccc3C)cc2)cc1	inconclusive: 35.5 µM [fluorescent, side channel, single point]	–
